test system: acyl-CoA synthetase; assay: Enzymatic determination of fatty acids, decrease of NADH (Reference Examples 1 and 2); type: biochemical, Candida lipolytica; details: 10 nmol of fatty acid; reaction period 20 minutes

Compound	ΔO.D. at 334 nm
CCCCCCCCCCCCCCCCCC(=O)O [Stearic acid]	0.230

same assay, conditions: 10 nmol of fatty acid; theoretical value 0.246

Compound	ΔO.D. at 334 nm
CCCCCCCCCCCCCCCC(=O)O [Palmitic acid]	0.245
CCCCCCCCCCCCCC(=O)O [Myristic acid]	0.210
CCCCCCCC/C=C\CCCCCCCC(=O)O [Oleic acid]	0.240
CCCCC/C=C\C/C=C\CCCCCCCC(=O)O [Linoleic acid]	0.240
CCCCCC/C=C\CCCCCCCC(=O)O [Palmitoleic acid]	0.235
CC/C=C\C/C=C\C/C=C\CCCCCCCC(=O)O [Linolenic acid]	0.250

Source: US4304864A, “Long-chain acyl-coenzyme-A synthetase” (Mitsubishi Chemical Industries, Limited, priority 1978, dated 1981)
